Data on two substances can be found in publication PMC11277477.

No constants are given. Whether binding was seen depends on the method and setting. Binding seen in cells or lysates may run through a third protein. A result given as binding can be weak or reduced; the word gives no strength. Sequences can lack the tags named with a protein.

For experiment [1], the target named is T1, GST-Linker recombinant protein (E. histolytica).
T1 sequence: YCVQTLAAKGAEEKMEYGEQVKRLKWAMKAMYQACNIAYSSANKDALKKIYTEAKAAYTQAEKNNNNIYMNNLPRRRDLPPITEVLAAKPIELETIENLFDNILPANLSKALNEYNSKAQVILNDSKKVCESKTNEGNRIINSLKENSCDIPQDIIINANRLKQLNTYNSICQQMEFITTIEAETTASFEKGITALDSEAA
Briefly: pull-down; GST-tagged bait bound to glutathione-Sepharose (200 μg) incubated with total trophozoite lysate (2 mg), 4 h, 4 °C; bound proteins detected by western blot with specific antibodies; only the target purified.

The target of experiment [2] is T2, GST-Adh recombinant protein (E. histolytica).
T2 sequence: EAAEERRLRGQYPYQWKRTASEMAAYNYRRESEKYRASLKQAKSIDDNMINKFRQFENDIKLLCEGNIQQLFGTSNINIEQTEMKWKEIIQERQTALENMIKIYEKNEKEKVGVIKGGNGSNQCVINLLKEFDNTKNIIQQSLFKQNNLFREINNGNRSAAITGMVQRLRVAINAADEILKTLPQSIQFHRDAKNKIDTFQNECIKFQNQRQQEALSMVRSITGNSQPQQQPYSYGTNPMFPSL
The description is as above.

Consider EhRabB (enzyme), for which the binding entry in experiment [1] is “binds”.

In the case of EhHSP70 (EHI_061640), in experiment [2], the binding entry was “binds”.
